From ChEMBL document CHEMBL3779773, “A unique macrolactam derivative via a [4+6]-cycloaddition from Streptomyces niveus” (Bioorg Med Chem Lett, 2016)

Tested on: HepG2
Assay: Cytotoxicity against human HepG2 cells assessed as growth inhibition after 72 hrs by MTT assay
Assay type: functional, cell-based
Details: HepG2, 72 h

## COc1cccc2c1C(=O)c1c(O)c3c(c(O)c1C2=O)C[C@@](O)(C(=O)CO)C[C@@H]3O[C@H]1C[C@H](N)[C@H](O)[C@H](C)O1 [DOXORUBICIN]
  IC50: 720 nM
